Experimental data published in paper PMC8625570.
No constants are given. Whether binding was seen depends on the method and setting. For part of these data: Binding seen in cells or lysates may run through a third protein. Some binding calls cover weakened binding; strength is not graded here.

Protein sequences, listed by entry. Tags and fused reporters are not part of them. Lines headed by an entry give the natural chain unless they say otherwise; changes in a name come on top. Residues count along the entry.
UniProt P61586, residues 1-181: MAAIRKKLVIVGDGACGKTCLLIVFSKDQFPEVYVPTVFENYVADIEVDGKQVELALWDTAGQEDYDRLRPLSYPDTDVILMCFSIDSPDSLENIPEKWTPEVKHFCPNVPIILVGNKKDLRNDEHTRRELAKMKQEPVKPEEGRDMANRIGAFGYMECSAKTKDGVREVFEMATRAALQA
UniProt P17081, residues 2-193: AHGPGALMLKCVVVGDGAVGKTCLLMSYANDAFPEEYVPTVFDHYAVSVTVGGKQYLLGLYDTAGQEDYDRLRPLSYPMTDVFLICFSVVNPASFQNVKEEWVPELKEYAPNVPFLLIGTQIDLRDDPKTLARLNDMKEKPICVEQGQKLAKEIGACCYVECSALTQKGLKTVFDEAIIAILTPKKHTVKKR
UniProt P62745, residues 1-181: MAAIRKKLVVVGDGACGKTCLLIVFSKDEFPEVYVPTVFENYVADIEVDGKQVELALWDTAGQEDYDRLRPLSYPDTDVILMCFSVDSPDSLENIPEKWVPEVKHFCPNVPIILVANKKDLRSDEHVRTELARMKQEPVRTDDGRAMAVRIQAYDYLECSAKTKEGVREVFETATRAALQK
UniProt P08134, residues 1-181: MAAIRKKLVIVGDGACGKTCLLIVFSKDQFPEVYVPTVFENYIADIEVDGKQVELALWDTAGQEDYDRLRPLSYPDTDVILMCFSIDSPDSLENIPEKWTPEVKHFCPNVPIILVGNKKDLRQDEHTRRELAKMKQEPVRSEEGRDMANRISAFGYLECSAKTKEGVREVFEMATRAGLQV
UniProt P84095, residues 1-178: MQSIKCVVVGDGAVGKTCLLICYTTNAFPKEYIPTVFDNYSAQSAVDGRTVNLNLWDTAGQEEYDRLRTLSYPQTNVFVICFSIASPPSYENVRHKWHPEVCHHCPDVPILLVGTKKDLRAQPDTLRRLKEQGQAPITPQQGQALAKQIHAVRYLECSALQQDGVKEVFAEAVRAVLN
UniProt P60953, residues 1-178: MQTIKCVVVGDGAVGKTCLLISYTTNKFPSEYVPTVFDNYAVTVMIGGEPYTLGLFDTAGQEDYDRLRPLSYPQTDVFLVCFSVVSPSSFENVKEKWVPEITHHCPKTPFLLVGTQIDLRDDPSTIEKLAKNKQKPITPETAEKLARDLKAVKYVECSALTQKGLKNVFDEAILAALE
UniProt P46940: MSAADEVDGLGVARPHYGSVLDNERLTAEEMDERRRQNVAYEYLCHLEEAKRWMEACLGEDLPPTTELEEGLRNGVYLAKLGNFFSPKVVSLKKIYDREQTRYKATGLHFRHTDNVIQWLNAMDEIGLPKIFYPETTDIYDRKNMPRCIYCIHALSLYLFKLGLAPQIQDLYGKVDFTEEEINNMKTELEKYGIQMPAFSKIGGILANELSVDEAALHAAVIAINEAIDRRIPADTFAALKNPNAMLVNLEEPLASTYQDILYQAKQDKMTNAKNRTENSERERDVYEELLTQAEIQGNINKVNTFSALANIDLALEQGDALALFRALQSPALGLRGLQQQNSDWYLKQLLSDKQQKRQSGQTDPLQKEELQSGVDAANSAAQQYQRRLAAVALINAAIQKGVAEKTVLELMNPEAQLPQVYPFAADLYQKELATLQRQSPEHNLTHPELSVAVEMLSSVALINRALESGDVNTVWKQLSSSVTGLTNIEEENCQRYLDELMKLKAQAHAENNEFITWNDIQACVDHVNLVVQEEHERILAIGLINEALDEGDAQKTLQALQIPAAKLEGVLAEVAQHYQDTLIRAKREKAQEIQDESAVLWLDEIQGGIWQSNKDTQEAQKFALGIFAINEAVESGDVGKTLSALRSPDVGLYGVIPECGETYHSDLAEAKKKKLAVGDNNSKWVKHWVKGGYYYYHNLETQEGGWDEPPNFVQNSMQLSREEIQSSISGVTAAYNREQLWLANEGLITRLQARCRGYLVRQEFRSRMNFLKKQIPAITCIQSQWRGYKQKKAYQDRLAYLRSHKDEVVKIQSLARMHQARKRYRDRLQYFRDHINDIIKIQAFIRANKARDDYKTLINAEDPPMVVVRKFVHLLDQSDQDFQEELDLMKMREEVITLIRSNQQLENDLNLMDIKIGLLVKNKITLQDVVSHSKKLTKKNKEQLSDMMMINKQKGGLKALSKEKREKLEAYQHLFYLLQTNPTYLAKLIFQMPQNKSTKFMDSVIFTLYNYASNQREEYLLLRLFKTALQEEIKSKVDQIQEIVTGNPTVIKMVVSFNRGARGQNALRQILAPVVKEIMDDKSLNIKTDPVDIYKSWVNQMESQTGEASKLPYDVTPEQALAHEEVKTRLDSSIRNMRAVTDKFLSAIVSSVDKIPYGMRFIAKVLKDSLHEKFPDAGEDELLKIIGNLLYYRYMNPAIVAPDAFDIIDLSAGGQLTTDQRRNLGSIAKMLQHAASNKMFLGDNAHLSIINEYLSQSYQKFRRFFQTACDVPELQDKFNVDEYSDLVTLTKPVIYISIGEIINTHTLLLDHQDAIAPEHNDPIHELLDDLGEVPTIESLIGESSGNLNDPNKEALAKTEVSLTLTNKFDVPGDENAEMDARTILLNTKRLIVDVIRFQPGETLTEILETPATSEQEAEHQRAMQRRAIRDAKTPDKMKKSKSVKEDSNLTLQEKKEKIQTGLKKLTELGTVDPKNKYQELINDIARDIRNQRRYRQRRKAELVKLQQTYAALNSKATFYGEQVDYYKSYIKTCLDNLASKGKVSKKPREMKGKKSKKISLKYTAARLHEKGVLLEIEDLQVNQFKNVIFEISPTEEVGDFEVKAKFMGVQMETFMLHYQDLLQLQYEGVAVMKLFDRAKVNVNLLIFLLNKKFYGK
UniProt Q13576, residues 780-1575: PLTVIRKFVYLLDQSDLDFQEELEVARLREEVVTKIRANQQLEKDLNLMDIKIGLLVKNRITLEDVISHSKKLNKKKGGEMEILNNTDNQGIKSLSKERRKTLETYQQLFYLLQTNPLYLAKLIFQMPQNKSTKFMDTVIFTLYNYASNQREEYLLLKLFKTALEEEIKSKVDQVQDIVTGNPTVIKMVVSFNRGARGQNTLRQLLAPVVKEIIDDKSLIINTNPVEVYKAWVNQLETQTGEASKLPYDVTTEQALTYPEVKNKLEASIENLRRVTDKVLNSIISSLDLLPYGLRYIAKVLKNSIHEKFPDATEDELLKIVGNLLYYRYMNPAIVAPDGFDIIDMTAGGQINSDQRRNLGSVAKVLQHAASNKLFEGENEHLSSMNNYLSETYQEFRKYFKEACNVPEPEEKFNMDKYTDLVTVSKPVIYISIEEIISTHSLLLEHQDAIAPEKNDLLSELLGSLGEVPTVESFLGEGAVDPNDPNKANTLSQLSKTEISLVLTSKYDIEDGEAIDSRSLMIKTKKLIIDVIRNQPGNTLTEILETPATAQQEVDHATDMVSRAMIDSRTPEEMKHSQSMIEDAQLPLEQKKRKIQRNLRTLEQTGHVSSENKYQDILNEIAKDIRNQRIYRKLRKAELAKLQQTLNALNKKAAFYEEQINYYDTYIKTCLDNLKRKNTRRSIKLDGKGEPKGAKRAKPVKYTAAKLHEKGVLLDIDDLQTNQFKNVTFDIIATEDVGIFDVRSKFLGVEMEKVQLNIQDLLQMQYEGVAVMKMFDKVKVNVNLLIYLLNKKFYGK

Assays:
RHOA (aa 1-181) (human) [1] = biological target: RHOA (aa 1-181) (human) (UniProt P61586); test: stopped-flow fluorescence spectrometry; kon from 0.2 µM mGppNHp-bound RHO GTPase with 2-8 µM IQGAP1^C794; koff by displacing with 10 µM unlabeled RAC1-GppNHp from 2 µM IQGAP1^C794 with 0.2 µM GTPase; Kd calculated from the rate constants; 25 °C; both purified
RND3 (aa 1-244) (human) = biological target: T1, RND3 (aa 1-244) (human) (UniProt P61587); test: stopped-flow fluorescence spectrometry; indirect competition: association of IQGAP1^C794 with RAC1 in the presence and absence of excess GTP-bound RND proteins; GppNHp-bound CDC42 as positive control; both purified
T1 sequence: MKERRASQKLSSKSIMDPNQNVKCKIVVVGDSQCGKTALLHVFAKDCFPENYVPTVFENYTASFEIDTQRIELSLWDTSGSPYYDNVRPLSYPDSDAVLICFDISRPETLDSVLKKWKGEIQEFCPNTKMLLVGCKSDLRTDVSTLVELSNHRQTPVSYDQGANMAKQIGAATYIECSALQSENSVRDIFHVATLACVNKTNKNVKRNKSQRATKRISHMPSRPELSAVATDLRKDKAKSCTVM

RND1 (aa 1-232) (human) = biological target: T2, RND1 (aa 1-232) (human) (UniProt Q92730); test: as above
T2 sequence: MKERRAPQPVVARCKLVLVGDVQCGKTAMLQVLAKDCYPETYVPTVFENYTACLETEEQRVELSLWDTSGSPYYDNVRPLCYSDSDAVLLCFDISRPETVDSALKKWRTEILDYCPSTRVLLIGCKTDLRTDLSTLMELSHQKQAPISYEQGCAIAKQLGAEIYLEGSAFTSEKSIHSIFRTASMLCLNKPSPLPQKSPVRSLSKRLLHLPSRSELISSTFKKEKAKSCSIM

RND2 (aa 26-184) (human) = biological target: T3, RND2 (aa 26-184) (human) (UniProt P52198); test: as above
T3 sequence: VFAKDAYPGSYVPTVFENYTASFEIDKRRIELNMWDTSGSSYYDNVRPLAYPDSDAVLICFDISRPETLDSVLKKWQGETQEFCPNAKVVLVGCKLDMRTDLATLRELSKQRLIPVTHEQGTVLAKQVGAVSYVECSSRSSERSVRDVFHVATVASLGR

[2] = biological target: T4, RHOD, mouse (aa 2-193) (mouse) (UniProt P97348); test: stopped-flow fluorescence spectrometry; association (kobs): 2 µM IQGAP1^C794 or IQGAP2^C795 mixed with 0.2 µM mGppNHp-bound RHO GTPase; 30 mM Tris-HCl pH 7.5, 10 mM K2HPO4/KH2PO4 pH 7.4, 2 mM MgCl2, 3 mM DTT, 25 °C; both purified
T4 sequence: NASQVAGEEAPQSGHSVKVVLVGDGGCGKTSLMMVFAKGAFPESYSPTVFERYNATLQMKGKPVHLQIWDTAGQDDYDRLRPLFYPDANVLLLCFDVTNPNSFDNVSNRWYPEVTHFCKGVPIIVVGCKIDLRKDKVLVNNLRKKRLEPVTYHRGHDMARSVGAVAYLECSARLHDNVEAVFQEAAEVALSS

TC10 (aa 2-193) (human) = TC10 (aa 2-193) (human) (UniProt P17081); test: as above
RHOB (aa 1-181) (human) = RHOB (aa 1-181) (human) (UniProt P62745); test: as above
RIF (aa 1-195) (human) = biological target: T5, RIF (aa 1-195) (human) (UniProt Q9HBH0); test: as above
T5 sequence: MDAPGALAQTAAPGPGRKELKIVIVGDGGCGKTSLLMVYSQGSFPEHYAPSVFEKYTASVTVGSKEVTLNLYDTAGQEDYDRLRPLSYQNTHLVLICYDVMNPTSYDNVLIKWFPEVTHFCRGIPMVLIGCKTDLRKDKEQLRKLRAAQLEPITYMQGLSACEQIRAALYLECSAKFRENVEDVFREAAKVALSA

RHOC (aa 1-181) (human) = RHOC (aa 1-181) (human) (UniProt P08134); test: as above
RHOA (aa 1-181) (human) [3] = biological target: RHOA (aa 1-181) (human) (UniProt P61586); test: as above
GST-RHOG•GppNHp (human) = GST-RHOG•GppNHp (human) (UniProt P84095); test: pull-down; 10 µg GST-RHOG•GppNHp or GST-CDC42•GppNHp on glutathione agarose beads, HEK293 total cell lysate, 40 min at 4 °C; immunoblot with anti-IQGAP1 and anti-GST; only the target purified
GST-CDC42•GppNHp (human) = GST-CDC42•GppNHp (human) (UniProt P60953); test: as above

| binding (RHOA (aa 1-181) (human) [1]) | binding (RND3 (aa 1-244) (human)) | binding (RND1 (aa 1-232) (human)) | binding (RND2 (aa 26-184) (human)) | binding (GST-RHOG•GppNHp (human)) | binding (GST-CDC42•GppNHp (human)) | Substance | binding [2] | binding (TC10 (aa 2-193) (human)) | binding (RHOB (aa 1-181) (human)) | binding (RIF (aa 1-195) (human)) | binding (RHOC (aa 1-181) (human)) | binding (RHOA (aa 1-181) (human) [3]) |
| --- | --- | --- | --- | --- | --- | --- | --- | --- | --- | --- | --- | --- |
| no binding | no binding | no binding | no binding |  |  | IQGAP1^C794 (C-terminal half of human IQGAP1 with the GRD, RGCT and CT domains) (from UniProt P46940 863-1657) (domain or fragment) | no binding (tested: 2 µM IQGAP, 0.2 µM GTPase) | no binding (tested: 2 µM IQGAP, 0.2 µM GTPase) | no binding (tested: 2 µM IQGAP, 0.2 µM GTPase) | no binding (tested: 2 µM IQGAP, 0.2 µM GTPase) | no binding (tested: 2 µM IQGAP, 0.2 µM GTPase) | no binding (tested: 2 µM IQGAP, 0.2 µM GTPase) |
|  | no binding | no binding | no binding |  |  | IQGAP2^C795 (C-terminal fragment of IQGAP2) (from UniProt Q13576 780-1575) (domain or fragment) | no binding (tested: 2 µM IQGAP, 0.2 µM GTPase) | no binding (tested: 2 µM IQGAP, 0.2 µM GTPase) | no binding (tested: 2 µM IQGAP, 0.2 µM GTPase) | no binding (tested: 2 µM IQGAP, 0.2 µM GTPase) | no binding (tested: 2 µM IQGAP, 0.2 µM GTPase) | no binding (tested: 2 µM IQGAP, 0.2 µM GTPase) |
|  |  |  |  | binds | binds | endogenous IQGAP1 (HEK-293 total cell lysate) (from UniProt P46940 1-1657) |  |  |  |  |  |  |
